Laboratory results as given in paper PMC6997364.
These are yes or no findings as the source states them, for the method shown. Binding seen in cells or lysates may run through a third protein. Some binding calls cover weakened binding; strength is not graded here.

Chains of the proteins cited; added tags and fusions are not shown. Lines headed by an entry give the natural chain unless they say otherwise; changes in a name come on top.
UniProt P39743, whole entry: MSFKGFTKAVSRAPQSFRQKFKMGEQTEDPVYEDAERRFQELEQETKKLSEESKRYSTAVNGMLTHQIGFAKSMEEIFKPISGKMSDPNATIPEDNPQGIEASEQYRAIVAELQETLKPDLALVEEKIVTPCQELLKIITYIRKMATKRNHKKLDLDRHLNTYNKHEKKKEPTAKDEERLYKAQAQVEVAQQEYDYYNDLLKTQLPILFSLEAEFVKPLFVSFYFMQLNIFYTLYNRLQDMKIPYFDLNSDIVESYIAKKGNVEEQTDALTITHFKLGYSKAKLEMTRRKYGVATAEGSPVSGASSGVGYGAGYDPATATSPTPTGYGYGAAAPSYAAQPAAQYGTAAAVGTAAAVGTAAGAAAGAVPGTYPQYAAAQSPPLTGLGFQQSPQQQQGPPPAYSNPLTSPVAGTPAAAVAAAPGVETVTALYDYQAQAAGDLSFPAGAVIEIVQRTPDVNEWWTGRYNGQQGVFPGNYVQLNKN

Target: VSV-Rvs167 (S. cerevisiae) (UniProt P39743)
Assay: co-IP; total extracts of log-phase yeast cells co-expressing the tagged proteins (rvs167Δrvs161Δ, rvs167Δgvp36Δ, rvs161Δgvp36Δ, rvs167Δ, rvs167Δrvs161Δgvp36Δ or diploid cells); lysis buffer 20 mM Tris-HCl pH 7.5, 100 mM NaCl, 1 mM EDTA, 0.5% Triton X-100; anti-Myc, anti-HA, anti-GFP or anti-VSV antibody and protein G-agarose, 4 °C; washes up to 300 mM NaCl

Substance: GFP-Rvs167 P473L (from UniProt P39743 1-482)
- binding: binds
